# No constants are given. Whether binding was seen depends on the method and setting. In cells and extracts the contact can be indirect. Binding calls can cover weak binding; strength is not graded here. Where a sequence is shown, tags or fusion partners need not be part of it.
# Molecular target: T1, human TLR8-HA (hTLR8-HA) (human) (UniProt Q9NR97)
# T1 sequence: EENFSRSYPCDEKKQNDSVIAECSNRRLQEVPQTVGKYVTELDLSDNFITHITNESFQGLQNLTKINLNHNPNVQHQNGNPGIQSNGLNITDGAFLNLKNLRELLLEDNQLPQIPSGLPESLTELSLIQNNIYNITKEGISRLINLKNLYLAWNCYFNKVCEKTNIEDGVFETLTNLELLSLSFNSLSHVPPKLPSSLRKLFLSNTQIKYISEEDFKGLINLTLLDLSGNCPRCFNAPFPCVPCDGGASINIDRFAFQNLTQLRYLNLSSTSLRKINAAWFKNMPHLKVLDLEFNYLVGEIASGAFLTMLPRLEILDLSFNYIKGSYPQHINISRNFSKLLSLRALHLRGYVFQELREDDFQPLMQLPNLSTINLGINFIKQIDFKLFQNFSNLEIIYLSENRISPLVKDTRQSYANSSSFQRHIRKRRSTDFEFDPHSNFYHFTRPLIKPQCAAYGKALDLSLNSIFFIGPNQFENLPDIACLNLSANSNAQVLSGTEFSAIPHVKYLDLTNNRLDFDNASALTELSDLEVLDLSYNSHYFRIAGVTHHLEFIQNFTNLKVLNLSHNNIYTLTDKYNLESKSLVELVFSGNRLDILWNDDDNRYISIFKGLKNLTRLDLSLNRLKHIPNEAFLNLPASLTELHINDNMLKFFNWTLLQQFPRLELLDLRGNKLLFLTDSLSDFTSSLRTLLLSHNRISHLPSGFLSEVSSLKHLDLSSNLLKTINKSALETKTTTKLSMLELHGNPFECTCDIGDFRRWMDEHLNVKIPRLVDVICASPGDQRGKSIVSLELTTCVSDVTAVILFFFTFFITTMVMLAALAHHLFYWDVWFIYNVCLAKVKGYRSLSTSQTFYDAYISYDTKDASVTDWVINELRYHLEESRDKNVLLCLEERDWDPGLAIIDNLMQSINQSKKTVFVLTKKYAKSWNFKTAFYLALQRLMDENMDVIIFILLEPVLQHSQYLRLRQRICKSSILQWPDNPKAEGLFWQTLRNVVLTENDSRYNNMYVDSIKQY
# Assay: co-IP
row,Substance,binding
1,"C. atys (sooty mangabey) TLR4, FLAG-tagged (receptor)",binds
2,"Rhesus TLR4, FLAG-tagged (receptor)",binds
